Data source: PubChem BioAssay AID720505 (Drosophila RNAi Screening Center, 2013)
Assay: 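Fly regulators or components of the CRAC channel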 (primary screen). System: Drosophila S2R+ cells. Reagent: long dsRNA against Drosophila genes. Treatment: thapsigargin (2 µM) in calcium-free buffer to empty internal stores, then 2 mM calcium added back. Read-out: 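Stores emptied by 2 µM thapsigargin without calcium, then 2 mM calcium re-added; fluo-4 fluorescence followed by FLIPR in 384-well plates, per-well averaged endpoint, raw; two screen passes, some wells retested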. Direction: calcium signal and retest calcium signal: higher = more calcium entry after store depletion. Active means: 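Knock-downs counted as hits when calcium entry dropped relative to STIM1 positive and Rho1 negative controls present on each plate; roughly 1500 genes called, with reductions of differing size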. Meaning of the calls: active = called as lowering calcium entry; inactive = not called.
The screen tested about 20,000 reagents; below is an unselected part of those with a known target gene and a result. Over the whole deposit, about 2,100 (10%) got an active call. 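Raw plate signals without normalisation; calls rest on control-based scores that were not deposited; replicate 2 separates called from uncalled poorly.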 Names joined by + are all predicted targets of the reagent. No sequences are given here. The record does not give: the amount of reagent, the time to read-out.

no.	Target gene	amplicon	calcium signal, replicate 1	calcium signal, replicate 2	retest calcium signal, replicate 1	retest calcium signal, replicate 2	Call
1	bbx + waw	DRSC20575	131	104			inactive
2	bbx + waw	DRSC20589	88.1	132			inactive
3	CG42810	DRSC02533	126	88.9			inactive
4	Spps	DRSC15856	146	215			inactive
5	Spps	DRSC23206	185	201			inactive
6	Gld2	DRSC15863	224	166			inactive
7	Gld2	DRSC23037	138	178			inactive
8	Ir7c	DRSC18007	59.2	299			active
9	CycT	DRSC11124	130	122			inactive
10	CycT	DRSC23304	79.2	140			inactive
11	Nepl21	DRSC14133	103	106			inactive
12	Unc-115b + p24-2	DRSC16492	119	96.6			inactive
13	Cdk5alpha	DRSC03290	198	147			inactive
14	Cdk5alpha	DRSC23301	155	159			inactive
15	lncRNA:CR9162	DRSC03151	97.1	191			inactive
16	Ant2	DRSC19330	165	135			inactive
17	Sgs5bis	DRSC16263	124	141			inactive
18	CG42820	DRSC02265	152	143			inactive
19	Mgat4a	DRSC09326	71.5	106			inactive
20	Mgat4a	DRSC11070	72.4	156			inactive
21	CG30280	DRSC21761	199	103			inactive
22	Cdc50	DRSC20224	94.4	115			inactive
23	E2f2	DRSC03320	109	94.5			inactive
24	CG13989	DRSC02321	68.1	177			active
25	Cyp18a1	DRSC20235	34.6	83.8			active
26	CheB93a	DRSC15044	179	84.6			inactive
27	CG14277	DRSC02380	156	132			inactive
28	CG14011	DRSC02343	141	95.8			inactive
29	Pits	DRSC19385	120	107			inactive
30	Pits	DRSC19812	103	103	5888	109	inactive
31	Glys	DRSC16130	97.4	130			inactive
32	ed	DRSC00350	142	209			inactive
33	ed	DRSC00438	196	76			inactive
34	ed	DRSC00439	190	76.5			inactive
35	ed	DRSC00478	72.8	180			active
36	slpr	DRSC18225	117	78.5			inactive
37	slpr	DRSC23321	111	138			inactive
38	CG12521	DRSC09893	60.3	73.8			inactive
39	atos	DRSC07318	89.2	212			inactive
40	ND-B22	DRSC03193	111	95.7			inactive
41	CG31495	DRSC16762	114	176			inactive
42	Strica	DRSC04920	134	161			inactive
43	jeb	DRSC06305	95.2	140			inactive
44	jeb	DRSC06307	67.7	105			inactive
45	DptA	DRSC07404	124	124			inactive
46	fbp	DRSC02077	127	105			inactive
47	Prosbeta7	DRSC12186	63.4	70			active
48	CG13930	DRSC08399	93.6	64.9			inactive
49	CG42818	DRSC01963	78.9	95			active
50	Pde6	DRSC16401	137	160			inactive
51	Pde6	DRSC16402	106	169			inactive
52	Pde6	DRSC16403	81.5	137			inactive
53	SMC1	DRSC16846	212	197			inactive
54	ng2	DRSC18803	69.4	100			inactive
55	CG3358	DRSC04992	177	96.3			inactive
56	spn-D	DRSC22641	137	172			inactive
57	rictor	DRSC20071	60.2	128			active
58	CG32235	DRSC23257	110	97.6			inactive
59	ClpX	DRSC15592	134	212			inactive
60	eIF3d2	DRSC15651	92.3	104			inactive
61	Hand	DRSC02656	179	183			inactive
62	Plp	DRSC10006	100	216			inactive
63	Plp	DRSC10333	106	110			active
64	Plp	DRSC10700	99.7	117			inactive
65	DNAlig3	DRSC15201	182	117			inactive
66	CG6118	DRSC15968	102	85.5			inactive
67	CG6118	DRSC23197	133	187			inactive
68	Cpr67Fa2	DRSC10315	89	106			inactive
69	CG8870	DRSC16452	144	213			inactive
70	CG33116	DRSC02045	93	119			inactive
71	S6KL	DRSC19349	148	134	123	96.8	inactive
72	S6KL	DRSC21578	196	120			inactive
73	S6KL	DRSC23147	117	141			inactive
74	Tsp96F	DRSC14147	114	128			inactive
75	CG4161	DRSC01930	154	84.3			inactive
76	Syx5	DRSC03432	91.6	118			inactive
77	CG34049	DRSC00104	80.5	79.1			active
78	CG11509 (retired record)	DRSC17788	70.5	94.8			active
79	Cpr62Ba	DRSC08403	92.2	119			inactive
80	Ibf1	DRSC16419	92.6	147			inactive
81	chic	DRSC03507	168	97.5			inactive
82	IA-2	DRSC00304	127	205	80.6	153	inactive
83	IA-2	DRSC00652	127	209			inactive
84	IA-2	DRSC23335	104	152			inactive

14 of these entries, set out differently:
Hand [DRSC02656]: calcium signal, replicate 1 = 179; calcium signal, replicate 2 = 183; Call = inactive
Plp [DRSC10006]: calcium signal, replicate 1 = 100; calcium signal, replicate 2 = 216; Call = inactive
Plp [DRSC10333]: calcium signal, replicate 1 = 106; calcium signal, replicate 2 = 110; Call = active
Plp [DRSC10700]: calcium signal, replicate 1 = 99.7; calcium signal, replicate 2 = 117; Call = inactive
DNAlig3 [DRSC15201]: calcium signal, replicate 1 = 182; calcium signal, replicate 2 = 117; Call = inactive
CG6118 [DRSC15968]: calcium signal, replicate 1 = 102; calcium signal, replicate 2 = 85.5; Call = inactive
CG6118 [DRSC23197]: calcium signal, replicate 1 = 133; calcium signal, replicate 2 = 187; Call = inactive
Cpr67Fa2 [DRSC10315]: calcium signal, replicate 1 = 89; calcium signal, replicate 2 = 106; Call = inactive
CG8870 [DRSC16452]: calcium signal, replicate 1 = 144; calcium signal, replicate 2 = 213; Call = inactive
CG33116 [DRSC02045]: calcium signal, replicate 1 = 93; calcium signal, replicate 2 = 119; Call = inactive
S6KL [DRSC19349]: calcium signal, replicate 1 = 148; calcium signal, replicate 2 = 134; retest calcium signal, replicate 1 = 123; retest calcium signal, replicate 2 = 96.8; Call = inactive
S6KL [DRSC21578]: calcium signal, replicate 1 = 196; calcium signal, replicate 2 = 120; Call = inactive
S6KL [DRSC23147]: calcium signal, replicate 1 = 117; calcium signal, replicate 2 = 141; Call = inactive
Tsp96F [DRSC14147]: calcium signal, replicate 1 = 114; calcium signal, replicate 2 = 128; Call = inactive
